This is one part of the list. The main result of the screen is listed elsewhere. These columns were measured beside it and carry no call. The list favours compounds with an active or inconclusive main result. Potencies come from curve fits of mixed quality, noted in brackets.
Test: qHTS Assay for Lipid Storage Modulators in Drosophila S3 Cells;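 on cell number change: cells counted by Cell Tracker Red CMTPX staining in the red channel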
Details: BODIPY lipid droplet fluorescence, 18-24 h; for cell number change: measured here: cell count max response, cells fed with added oleic acid
How it was run: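 Drosophila S3 cells got compounds at several concentrations plus oleic acid (400 uM solution). Laser-scanning cytometry with 488 nm excitation read lipid droplets at 500-530 nm and cells at 575-640 nm. Percent activity was relative to 20 uM Triacsin C.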

[1] = measured here: cell number channel AC50, cells fed with added oleic acid
[2] = measured here: lipid fluorescence (Fed channel) AC50, cells fed with added oleic acid

In the case of `COc1ccc(S(=O)(=O)N2CCC(C(=O)N3CCN(c4ccccc4OC)CC3)CC2)cc1`, the AC50 [1] is reported as 6.51 µM [rising, partial curve, poor fit].

For `COc1ccc(CNc2cc(C)cc(C)c2)cc1OC`, the AC50 [2] was 29.1 µM [rising, single point].

For `CCCCCCSc1cccc(-c2nc3ccc(C)cn3c2NC2CCCCC2)c1`, the cell number change was -40.5%, the AC50 [1] was 29.1 µM [falling, partial curve, poor fit] and the AC50 [2] was 4.11 µM [falling, partial curve, poor fit].

With `CC(C)CCNC(=O)C1CC(c2cccc(F)c2)=NO1` (stereo not drawn) the cell number change was 23.8% and the AC50 [2] was 11.6 µM [rising, single point].

For `Cc1cccc(C(=O)OCC(=O)NNC(=O)c2cccs2)c1O`, the cell number change was -25% and the AC50 [1] was 0.00461 µM [falling, full curve, poor fit].

For `O=C(CNC(=O)c1cc(Cl)cc([N+](=O)[O-])c1)OCC(=O)N1CCCCC1`, the cell number change was -3.05%.

`Cc1cc(C)n(-c2nc3ccccc3nc2N2CCN(S(=O)(=O)c3ccc4ccccc4c3)CC2)n1` showed a cell number change of 2.44%.

With `O=C1CCCC2=C1C(c1ccc(Cl)cc1)C1C(=O)c3ccccc3C1=N2` (stereo not drawn) the cell number change was 6.9% and the AC50 [2] was 4.11 µM [falling, single point].

For `Cc1cccc2nc(COc3ccc4ccccc4c3Br)cn12`, the cell number change was 0.612% and the AC50 [1] was 2.31 µM [rising, partial curve].

For `CC(=O)c1c(C)[nH]c(C(=O)OCC(=O)N2CCN(S(=O)(=O)c3ccc(C)cc3C)CC2)c1C`, the cell number change was -49.1% and the AC50 [1] was 1.84 µM [falling, partial curve].

With `COc1ccc(C)cc1S(=O)(=O)N1CCN(Cc2ccccc2)CC1` the cell number change was 63.6%, the AC50 [1] was 2.59 µM [rising, full curve, poor fit] and the AC50 [2] was 4.61 µM [rising, full curve].

`COc1ccc(Cc2nnc(SCc3c(C)noc3C)n2C2CCCCC2)cc1OC` gave a cell number change of -8.77%.

Work on `Cc1ccc([C@@H]2[C@@H]3C(=O)N(c4ccccc4)C(=O)[C@@H]3[C@]3(C)C(=O)N(Cc4ccccc4)CC(=O)N23)o1` yielded a cell number change of 15.3%.

With `C=CCN(c1ccc(C(=O)Nc2ccc(C)cc2)cc1)S(C)(=O)=O` the AC50 [2] was 6.51 µM [falling, single point].

With `Cc1cc(N2CCN(Cc3nc(-c4ccc(Cl)cc4)oc3C)CC2)cc(C)n1` the cell number change was 13.7% and the AC50 [2] was 0.82 µM [rising, partial curve].

For `Cc1cc(C)nc(Sc2ccc3nnc(C(F)(F)C(F)(F)C(F)(F)F)n3n2)n1`, the cell number change was 93.9%, the AC50 [1] was 16.4 µM [rising, single point] and the AC50 [2] was 18.4 µM [rising, partial curve].

For `CC1Cn2c(nnc2-c2cc3ccccc3cc2O)S1` (stereo not drawn), the cell number change was -35.9%, the AC50 [1] was 9.2 µM [falling, partial curve] and the AC50 [2] was 14.6 µM [falling, partial curve, poor fit].

In the case of `CCCOc1ccc(/C(O)=C2/C(=O)C(=O)N(CCCn3ccnc3)C2c2ccc(C)o2)cc1` (stereo not drawn), the cell number change is reported as -16.6% and the AC50 [2] is reported as 0.82 µM [falling, full curve].

For `COc1cc(OC)cc(-c2cc3nc(C)cc(N4CCN(C(=O)c5ccco5)CC4)n3n2)c1`, the cell number change was 4.76% and the AC50 [2] was 3.26 µM [rising, partial curve].

In the case of `COC(=O)CCCCCN1C(=O)NC(c2ccc(-c3ccccc3)cc2)C(C(=O)OCc2ccccc2)=C1C` (stereo not drawn), the AC50 [2] is reported as 16.4 µM [rising, partial curve].

For `CC1=C(C(=O)OCc2ccc3c(c2)OCO3)C(c2ccccc2OCc2ccccc2)NC(=O)N1` (stereo not drawn), the cell number change was 8.2%, the AC50 [1] was 1.3 µM [rising, full curve, poor fit] and the AC50 [2] was 6.51 µM [rising, partial curve, poor fit].

In the case of `Cc1nc2ccc(S(=O)(=O)NC(C(=O)NCc3ccco3)C(C)C)cc2s1` (stereo not drawn), the cell number change is reported as -27.8% and the AC50 [2] is reported as 29.1 µM [falling, single point].

With `CCC(Cc1ccccc1)NC(=O)c1ccc2nc(N3CCOCC3)sc2c1` (stereo not drawn) the cell number change was 10.2% and the AC50 [2] was 16.4 µM [rising, single point].

In the case of `CC1=C(C(=O)NC2CCCc3c2cnn3-c2cccc(C)c2C)OCCO1` (stereo not drawn), the cell number change is reported as -56.7%, the AC50 [1] is reported as 0.0517 µM [falling, full curve] and the AC50 [2] is reported as 0.00517 µM [falling, full curve].

For `CC1(c2ccccc2Cl)NC(=O)N(CC(=O)NC(=O)NCc2ccco2)C1=O` (stereo not drawn), the cell number change was 4.86% and the AC50 [1] was 6.51 µM [rising, single point].

For `O=C(Nc1ccc(S(=O)(=O)N2CCOCC2)cc1)c1ccccc1F`, the cell number change was 6.32% and the AC50 [2] was 29.1 µM [falling, single point].

For `CCOC(=O)C1=C(C)N=C2SC(CC)C(=O)N2C1c1cccc(F)c1` (stereo not drawn), the AC50 [2] was 0.326 µM [rising, partial curve, poor fit].

In the case of `COc1ccc(Cl)cc1NC(=S)N1CC(C)OC(C)C1` (stereo not drawn), the cell number change is reported as 47% and the AC50 [1] is reported as 6.51 µM [rising, full curve].

For `COc1cccc2c1CCc1c-2nc2ccccc2c1C(=O)O`, the cell number change was -10.8% and the AC50 [2] was 29.1 µM [falling, single point].

With `Cc1cc(C)n(-c2ccc(C(=O)OCC(=O)c3ccc(Br)s3)cc2)n1` the cell number change was -12.7%.

For `CCOC(=O)Cn1cnc2c(nnn2-c2ccc(F)cc2)c1=O`, the cell number change was -13.3% and the AC50 [2] was 0.651 µM [falling, single point].

For `CC(C)(C)c1ccc(C(=O)Nc2cccc(C(=O)N3CCOCC3)c2)cc1`, the cell number change was -49%, the AC50 [1] was 29.1 µM [falling, single point] and the AC50 [2] was 29.1 µM [falling, single point].

In the case of `Cc1c(NS(=O)(=O)c2ccccc2F)c(=O)n(-c2ccccc2)n1C`, the cell number change is reported as 25.7% and the AC50 [2] is reported as 9.2 µM [rising, partial curve].

With `Cc1ccc(C2(C)NC(=O)N(Cc3c(C)noc3C)C2=O)cc1` (stereo not drawn) the cell number change was 8.05% and the AC50 [2] was 29.1 µM [rising, single point].

With `CC(C)N1C[C@@]23C=C[C@@H](O2)C(C(=O)OCc2ccccc2)[C@H]3C1=O` (stereo partly drawn) the cell number change was -11.1% and the AC50 [2] was 0.651 µM [falling, full curve, poor fit].

Compound `Cc1ccc(N2CC(C(=O)N3CCC(C(=O)Nc4nnc(C(C)(C)C)s4)CC3)CC2=O)cc1` (stereo not drawn) has a cell number change of 12%.

In the case of `Cc1cc(C)n2nc(SCc3ncc(-c4ccccc4)o3)nc2n1`, the cell number change is reported as 41.3%, the AC50 [1] is reported as 7.31 µM [rising, partial curve] and the AC50 [2] is reported as 0.58 µM [rising, single point].

With `CCc1ccc(NC(=O)c2onc(C)c2Cl)cc1` the cell number change was -26.7% and the AC50 [2] was 29.1 µM [falling, single point].

In the case of `CC(C)[C@H](NC(=O)c1c(F)cccc1F)C(=O)OCC(=O)NC(=O)NC1CCCC1`, the cell number change is reported as -33.7% and the AC50 [2] is reported as 6.51 µM [falling, single point].

In the case of `CC(C)(C)c1ccc(OC(=O)c2ccc3nsnc3c2)cc1`, the AC50 [2] is reported as 6.51 µM [rising, single point].

In the case of `COc1ccc(C(=O)CSc2nc(C)cc(C)n2)cc1C`, the cell number change is reported as -16.4%.

For `CCCCCC(=O)Nc1nnn(CCC)n1`, the cell number change was -3.07% and the AC50 [2] was 0.651 µM [falling, single point].

In the case of `COc1ccc(C(=O)n2cnnc2N)cc1`, the cell number change is reported as -5.23% and the AC50 [2] is reported as 3.26 µM [falling, partial curve, poor fit].

In the case of `COc1ccccc1C(=O)NCCC(=O)Nc1ncccc1O`, the cell number change is reported as -5.63% and the AC50 [2] is reported as 23.1 µM [falling, partial curve, poor fit].

In the case of `Cc1csc(Nc2nc(N)c(C(=O)Nc3ccccc3)o2)n1`, the cell number change is reported as -60.9%, the AC50 [1] is reported as 16.4 µM [falling, partial curve] and the AC50 [2] is reported as 13 µM [falling, partial curve].

For `COc1cccc(N2CCN(C(=S)Nc3cc(C)cc(C)c3)CC2)c1`, the cell number change was -22.6% and the AC50 [2] was 0.651 µM [falling, full curve, poor fit].

For `CCCN1CCC(NCc2cn(C)nc2-c2ccc(Oc3ccccc3)cc2)CC1`, the cell number change was 5.03% and the AC50 [2] was 6.51 µM [falling, single point].

In the case of `COc1cc(OC)cc(C(=O)N2CCN(C3CCN(Cc4ccccc4)CC3)CC2)c1`, the cell number change is reported as -0.87%, the AC50 [1] is reported as 0.651 µM [falling, full curve, poor fit] and the AC50 [2] is reported as 2.06 µM [falling, partial curve].

In the case of `COC(=O)[C@H](CCSC)NC(=O)N1CCC(C)CC1`, the cell number change is reported as -10.2% and the AC50 [2] is reported as 1.84 µM [falling, full curve].

For `O=[N+]([O-])c1ccc(OCC(O)CN(CCO)CCO)cc1` (stereo not drawn), the cell number change was -16.9% and the AC50 [1] was 2.59 µM [rising, partial curve, poor fit].

For `COc1ccc(S(=O)(=O)N2CCC(C(=O)Nc3ccc(S(=O)(=O)N4CCCC4)cc3)CC2)cc1OC`, the cell number change was 33.3%, the AC50 [1] was 11.6 µM [rising, partial curve, poor fit] and the AC50 [2] was 14.6 µM [rising, partial curve, poor fit].

For `Nc1cccc(-c2cn3cccnc3n2)c1`, the cell number change was 2.76% and the AC50 [1] was 0.116 µM [falling, full curve, poor fit].

With `Cn1c(SCC(=O)Nc2ccccc2F)nc2c(c1=O)SCC2` the cell number change was -42.5%, the AC50 [1] was 16.4 µM [falling, partial curve, poor fit] and the AC50 [2] was 11.6 µM [falling, partial curve, poor fit].

In the case of `COC(=O)Cn1c(=NC(=O)c2ccc(S(=O)(=O)N3CCc4ccccc4C3)cc2)sc2cc(OC)ccc21`, the cell number change is reported as 29.3%.

In the case of `O=C(NNC(=S)Nc1ccccc1)c1cccc(S(=O)(=O)N2CCOCC2)c1`, the cell number change is reported as -15%.

In the case of `Cc1ccc(S(=O)(=O)NC(=O)Nc2ccc(C)cn2)cc1`, the cell number change is reported as 13.3% and the AC50 [2] is reported as 0.326 µM [falling, full curve, poor fit].

For `O=C(Nc1cc(C(F)(F)F)ccc1N1CCOCC1)C1CC1`, the cell number change was -3.37% and the AC50 [2] was 4.11 µM [rising, single point].

In the case of `CCCCOC(=O)Cn1cnc2ccc(Br)cc2c1=O`, the cell number change is reported as -21.3% and the AC50 [2] is reported as 0.00517 µM [falling, full curve, poor fit].

— PubChem BioAssay AID2685 (National Center for Advancing Translational Sciences (NCATS), 2010)
